Measured values: patent US20220403044A1 (ACADEMIA SINICA, published 2022)
These are yes or no findings as the source states them, for the method shown. For part of these data: In cells and extracts the contact can be indirect. Some results given as binding are weak or reduced against the parent protein; the word gives no strength. Where a sequence is shown, tags or fusion partners need not be part of it.

Columns and labels:
[1] = target: EGFRECD-Flag (soluble extracellular domain of EGFR, Flag-tagged) (UniProt P00533); assay: IP with Protein G beads from culture medium of co-transfected HEK293T cells, Western blot with anti-Flag (FIG. 1E)
[2] = target: EGFR (endogenous, on HCT116 or H441 cells) (human) (UniProt P00533); assay: DTSSP cross-linking on HCT116 cells, pull-down with Protein G beads, Western blot (FIG. 1A)
[3] = target: EGFRECD-6×His (purified extracellular domain of EGFR, His-tagged) (UniProt P00533); assay: purified proteins incubated, IP with Protein G beads, Western blot (FIG. 1G)

Measured: binding

B1: EpEX-Fc (extracellular domain of EpCAM fused to Fc) (Fc fusion, UniProt P16422 24-262, looked up, not shown: a dimerising Fc or GST)
chain: QEECVCENYKLAVNCFVNNNRQCQCTSVGAQNTVICSKLAAKCLVMKAEMNGSKLGRRAKPEGALQNNDGLYDPDCDESGLFKAKQCNGTSMCWCVNTAGVRRTDKDTEITCSERVRTYWIIIELKHKAREKPYDSKSLRTALQKEITTRYQLDPKFITSILYENNVITIDLVQNSSQKTQNDVDIADVAYYFEKDVKGESLFHSKKMDLTVNGEQLDLDPGQTLIYYVDEKAPEFSMQ
binds: [1] | [2] | [3]
